# Assay results

The results are deposited in PubChem (AID530; NCATS, 2006).

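Mouse JNK3 activity from prestimulated HepG2 lysate, measured as phospho-c-Jun AlphaScreen signal after two hours of kinase reaction plus three hours detection.
Each compound ran as a dilution series from about 0.6 nM up to 57.1 µM.
Fitted AC50 for either an inhibiting or an activating curve; a lower value means greater potency.
Calls come from the fitted dose curve (inhibitor, activator, inactive or inconclusive); every row here is inconclusive, including some full curves, so the exact cut-off is unclear.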

Values are in nM.
Every entry below has the call inconclusive.
Only part of the assay is shown, chiefly results filed as inconclusive.
Potencies fitted to partial, single-point or poorly fitting curves are rough.
Some entries filed as inconclusive have a full curve.
The first word of each remark tells which way the curve ran; it can be opposite to the aim of the assay.

{"structure": "Cc1cccc(/C=C\\c2ccccc2)n1", "potency (nM)": "125.9", "curve as filed": "activator, full curve, poor fit"}
{"structure": "Cc1cc(-c2cc(C)c(N)c(C)c2)cc(C)c1N", "potency (nM)": "31622", "curve as filed": "inhibitor, single point"}
{"structure": "O=S(=O)(O)c1cc(O)c2c(O)c(N=Nc3cccc4ccccc34)c(S(=O)(=O)O)cc2c1", "potency (nM)": "3981", "curve as filed": "inhibitor, partial curve"}
{"structure": "Oc1cc2c(cc1O)[C@H]1c3ccc(O)c(O)c3OC[C@@]1(O)C2", "potency (nM)": "39810", "curve as filed": "inhibitor, single point"}
{"structure": "CCC/C=C(\\CCC)C(NC(=O)Cc1ccccc1)c1ccc(C(=O)OC)cc1", "stereo": "centres undefined", "potency (nM)": "31622", "curve as filed": "activator, single point"}
{"structure": "Cc1cc(NC(=O)Nc2ccc(N(C)C)cc2)c2cc(F)cc(F)c2n1", "potency (nM)": "3162", "curve as filed": "inhibitor, full curve"}
{"structure": "Nc1nc(Nc2ccccc2)nc2c1ncn2[C@@H]1O[C@@H](CO)[C@H](O)[C@H]1O", "potency (nM)": "19952", "curve as filed": "inhibitor, partial curve, poor fit"}
{"structure": "Clc1ccc(C(c2ccccc2Cl)C(Cl)(Cl)Cl)cc1", "stereo": "centres undefined", "potency (nM)": "39810", "curve as filed": "activator, partial curve"}
{"structure": "Cc1ccc(O)c(N=Nc2ccccc2)n1", "potency (nM)": "25118", "curve as filed": "inhibitor, partial curve"}
{"structure": "CCCC/C=C/C(NC(=O)CCc1ccccc1)c1ccccc1", "stereo": "centres undefined", "potency (nM)": "25118", "curve as filed": "activator, partial curve"}
{"structure": "O=C(O)[C@H]1C[C@H](C(=O)O)N1", "potency (nM)": "199.5", "curve as filed": "activator, full curve, poor fit"}
{"structure": "N#Cc1cc2nc(O)c(O)nc2cc1[N+](=O)[O-]", "potency (nM)": "63.1", "curve as filed": "activator, full curve"}
{"structure": "CC(=O)[C@@H]1[C@H]2[C@@H](C(=O)[C@H]3OC[C@H]2O3)[C@@H]2C=Cc3ccccc3N12", "potency (nM)": "15848", "curve as filed": "inhibitor, partial curve"}
{"structure": "CCCCNc1cc(C(=O)O)cc(S(N)(=O)=O)c1Oc1ccccc1", "potency (nM)": "12589", "curve as filed": "activator, full curve, poor fit"}
{"structure": "CN(C)CCCN1c2ccccc2Sc2ccc(Cl)cc21", "potency (nM)": "5.012", "curve as filed": "activator, full curve, poor fit"}
{"structure": "O=C(O)c1cc(=O)c2c(Cl)cc(Cl)cc2[nH]1", "potency (nM)": "2512", "curve as filed": "inhibitor, full curve, poor fit"}
{"structure": "CC(C)C[C@@H](CC(=O)N[C@@H](CCCN)CC(=O)N[C@@H]1CCCC[C@H]1C(=O)N[C@H](CC(=O)N[C@@H](CCC(=O)O)CC(=O)O)Cc1ccccc1)NC(=O)[C@@H]1CNCC[C@H]1N", "potency (nM)": "3981", "curve as filed": "inhibitor, full curve, poor fit"}
{"structure": "Cl/C(=C\\n1cncn1)c1ccc(Cl)cc1Cl", "potency (nM)": "31622", "curve as filed": "activator, partial curve, poor fit"}
{"structure": "CCCCOC(=O)c1ccccc1C(=O)OCCCC", "potency (nM)": "31622", "curve as filed": "activator, partial curve"}
{"structure": "ClCC(Cl)Cl", "potency (nM)": "79.43", "curve as filed": "activator, full curve, poor fit"}
{"structure": "O=C(O)[C@H]1CCCC[C@@H]1c1c2ccc(=O)c(O)c-2oc2c(O)c(O)ccc12", "potency (nM)": "6310", "curve as filed": "inhibitor, single point"}
{"structure": "CNCC[C@H](Oc1ccc(C(F)(F)F)cc1)c1ccccc1", "potency (nM)": "125.9", "curve as filed": "activator, full curve, poor fit"}

2 of the entries, repeated:

structure	potency (nM)	curve as filed
Oc1cc2c(cc1O)[C@H]1c3ccc(O)c(O)c3OC[C@@]1(O)C2	39810	inhibitor, single point
CCC/C=C(\CCC)C(NC(=O)Cc1ccccc1)c1ccc(C(=O)OC)cc1 (centres undefined)	31622	activator, single point